Reference: US20150098955A1 (VIELA BIO, published 2015)
These are yes or no findings as the source states them, for the method shown. Some entries that bind do so weakly or less than the wild type.

Protein sequences, listed by entry. Tags and fused reporters are not part of them. Residues count along the entry.
UniProt P29965, residues 47-261: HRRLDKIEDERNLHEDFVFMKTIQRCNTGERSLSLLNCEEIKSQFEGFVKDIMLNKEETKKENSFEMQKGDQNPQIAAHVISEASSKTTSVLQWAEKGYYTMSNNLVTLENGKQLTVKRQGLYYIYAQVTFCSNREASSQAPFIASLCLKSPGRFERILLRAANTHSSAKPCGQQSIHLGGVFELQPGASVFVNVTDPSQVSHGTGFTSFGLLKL

Legend:
[1] = biological target: Recombinant human CD40L (Human MegaCD40L; Axxora) (human) (UniProt P29965); experiment: capture ELISA: His-tagged Tn3 captured on anti-His antibody, biotinylated Human MegaCD40L detected with SA-HRP
[2] = biological target: Recombinant human CD40L (Human MegaCD40L; Axxora) (human) (UniProt P29965); experiment: plate binding assay: anti-His capture of Tn3, biotinylated human MegaCD40L, SA-HRP
[3] = biological target: Recombinant human CD40L (Human MegaCD40L; Axxora) (human) (UniProt P29965); experiment: loop swapping experiment, plate binding assay

Measured: binding

B1: Clone 309FGwt - Parental clone with 'humanized' FG loop (designed binder)
chain: AIEVKDVTDTTALITWSDEFGHYDGCELTYGIKDVPGDRTTIDLWWHSAWYSIGNLKPDTEYEVSLICRRGDMSSNPAKETFTTGGGTLGHHHHHHHH
binds: all assays above
